# Results from the supplement of paper PMC12819154, “High-throughput peptide-centric local stability assay extends protein–ligand identification to membrane proteins, tissues and bacteria” (Nature Structural & Molecular Biology, 2025).
# Sequences of proteins named here, by UniProt entry; tags and fusion partners are left off. A change or cut given only in a name is not applied to a line headed by its entry.
# UniProt A3KMH1: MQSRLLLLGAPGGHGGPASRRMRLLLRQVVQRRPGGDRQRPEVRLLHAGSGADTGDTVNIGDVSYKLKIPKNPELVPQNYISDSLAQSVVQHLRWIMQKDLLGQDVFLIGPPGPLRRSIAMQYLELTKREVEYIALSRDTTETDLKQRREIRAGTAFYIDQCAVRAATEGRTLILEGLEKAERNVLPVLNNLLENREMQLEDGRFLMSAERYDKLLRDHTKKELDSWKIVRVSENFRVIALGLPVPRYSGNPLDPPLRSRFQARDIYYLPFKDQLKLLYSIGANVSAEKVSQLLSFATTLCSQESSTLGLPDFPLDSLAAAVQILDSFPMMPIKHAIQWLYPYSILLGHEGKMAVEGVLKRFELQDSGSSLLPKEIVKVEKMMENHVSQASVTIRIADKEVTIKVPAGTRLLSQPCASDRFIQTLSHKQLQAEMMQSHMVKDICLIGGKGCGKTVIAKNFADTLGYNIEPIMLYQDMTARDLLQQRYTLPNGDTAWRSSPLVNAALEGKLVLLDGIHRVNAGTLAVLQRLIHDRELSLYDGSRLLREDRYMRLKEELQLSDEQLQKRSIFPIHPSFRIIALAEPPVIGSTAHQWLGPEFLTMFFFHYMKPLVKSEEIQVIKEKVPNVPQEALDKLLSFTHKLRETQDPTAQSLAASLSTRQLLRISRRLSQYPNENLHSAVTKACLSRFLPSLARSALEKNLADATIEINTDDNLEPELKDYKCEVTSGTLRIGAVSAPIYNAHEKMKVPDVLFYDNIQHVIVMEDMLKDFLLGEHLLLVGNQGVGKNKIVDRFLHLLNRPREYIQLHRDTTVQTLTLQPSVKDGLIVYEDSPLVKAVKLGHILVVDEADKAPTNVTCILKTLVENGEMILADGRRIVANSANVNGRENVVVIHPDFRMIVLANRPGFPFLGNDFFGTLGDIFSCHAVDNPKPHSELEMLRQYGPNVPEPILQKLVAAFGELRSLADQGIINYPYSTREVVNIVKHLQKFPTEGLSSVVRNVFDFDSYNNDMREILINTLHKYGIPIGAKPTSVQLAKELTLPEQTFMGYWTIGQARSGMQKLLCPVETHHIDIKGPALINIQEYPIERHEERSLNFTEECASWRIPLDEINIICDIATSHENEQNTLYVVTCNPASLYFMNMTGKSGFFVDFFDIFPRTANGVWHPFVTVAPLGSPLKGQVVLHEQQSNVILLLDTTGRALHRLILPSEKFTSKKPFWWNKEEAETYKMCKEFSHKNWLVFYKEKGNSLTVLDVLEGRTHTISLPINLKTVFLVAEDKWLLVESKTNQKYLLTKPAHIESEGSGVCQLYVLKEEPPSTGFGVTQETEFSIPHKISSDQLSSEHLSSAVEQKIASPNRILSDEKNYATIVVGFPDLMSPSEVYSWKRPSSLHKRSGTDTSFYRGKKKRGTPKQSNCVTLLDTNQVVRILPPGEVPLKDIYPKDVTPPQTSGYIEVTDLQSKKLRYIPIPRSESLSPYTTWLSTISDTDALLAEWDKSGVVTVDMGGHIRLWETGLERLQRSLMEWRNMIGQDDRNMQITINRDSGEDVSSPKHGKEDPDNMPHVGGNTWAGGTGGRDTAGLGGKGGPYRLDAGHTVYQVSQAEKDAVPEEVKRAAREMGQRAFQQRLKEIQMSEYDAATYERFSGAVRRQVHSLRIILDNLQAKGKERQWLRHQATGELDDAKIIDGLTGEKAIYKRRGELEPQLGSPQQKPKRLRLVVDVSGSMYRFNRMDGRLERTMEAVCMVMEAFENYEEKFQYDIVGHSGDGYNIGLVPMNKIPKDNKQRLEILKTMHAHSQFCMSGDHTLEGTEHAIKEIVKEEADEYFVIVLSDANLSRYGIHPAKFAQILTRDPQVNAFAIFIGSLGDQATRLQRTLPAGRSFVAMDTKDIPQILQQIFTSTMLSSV
# UniProt A4FU28: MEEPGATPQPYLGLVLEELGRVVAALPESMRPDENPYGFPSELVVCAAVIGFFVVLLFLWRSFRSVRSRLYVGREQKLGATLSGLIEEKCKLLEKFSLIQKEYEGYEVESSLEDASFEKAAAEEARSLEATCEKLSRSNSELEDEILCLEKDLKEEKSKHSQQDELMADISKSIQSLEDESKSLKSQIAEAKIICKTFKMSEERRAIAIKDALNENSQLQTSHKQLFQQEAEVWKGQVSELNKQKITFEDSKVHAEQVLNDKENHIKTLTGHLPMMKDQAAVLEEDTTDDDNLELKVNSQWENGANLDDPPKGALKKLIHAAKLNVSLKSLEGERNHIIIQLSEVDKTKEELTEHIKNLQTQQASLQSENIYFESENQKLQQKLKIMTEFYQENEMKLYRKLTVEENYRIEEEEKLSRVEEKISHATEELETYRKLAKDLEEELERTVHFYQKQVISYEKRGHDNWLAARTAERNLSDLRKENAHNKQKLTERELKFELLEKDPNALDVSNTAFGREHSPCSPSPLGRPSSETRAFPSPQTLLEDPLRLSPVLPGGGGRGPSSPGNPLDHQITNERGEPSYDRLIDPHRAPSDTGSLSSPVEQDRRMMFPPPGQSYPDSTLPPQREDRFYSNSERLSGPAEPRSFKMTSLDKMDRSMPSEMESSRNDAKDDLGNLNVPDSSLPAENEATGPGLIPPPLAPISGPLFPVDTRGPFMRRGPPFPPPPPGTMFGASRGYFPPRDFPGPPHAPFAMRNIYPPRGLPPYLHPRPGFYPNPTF
# UniProt A6NNY8: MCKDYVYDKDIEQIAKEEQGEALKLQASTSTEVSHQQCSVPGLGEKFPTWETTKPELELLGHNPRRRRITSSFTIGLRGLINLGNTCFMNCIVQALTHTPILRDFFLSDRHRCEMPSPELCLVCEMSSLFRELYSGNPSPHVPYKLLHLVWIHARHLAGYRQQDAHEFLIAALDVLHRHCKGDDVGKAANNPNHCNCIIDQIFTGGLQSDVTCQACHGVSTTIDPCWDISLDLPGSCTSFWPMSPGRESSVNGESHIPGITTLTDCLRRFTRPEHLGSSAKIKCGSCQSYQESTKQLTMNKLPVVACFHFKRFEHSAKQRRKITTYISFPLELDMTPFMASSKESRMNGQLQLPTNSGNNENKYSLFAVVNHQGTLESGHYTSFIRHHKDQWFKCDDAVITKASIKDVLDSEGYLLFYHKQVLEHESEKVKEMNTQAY
# UniProt A8K855: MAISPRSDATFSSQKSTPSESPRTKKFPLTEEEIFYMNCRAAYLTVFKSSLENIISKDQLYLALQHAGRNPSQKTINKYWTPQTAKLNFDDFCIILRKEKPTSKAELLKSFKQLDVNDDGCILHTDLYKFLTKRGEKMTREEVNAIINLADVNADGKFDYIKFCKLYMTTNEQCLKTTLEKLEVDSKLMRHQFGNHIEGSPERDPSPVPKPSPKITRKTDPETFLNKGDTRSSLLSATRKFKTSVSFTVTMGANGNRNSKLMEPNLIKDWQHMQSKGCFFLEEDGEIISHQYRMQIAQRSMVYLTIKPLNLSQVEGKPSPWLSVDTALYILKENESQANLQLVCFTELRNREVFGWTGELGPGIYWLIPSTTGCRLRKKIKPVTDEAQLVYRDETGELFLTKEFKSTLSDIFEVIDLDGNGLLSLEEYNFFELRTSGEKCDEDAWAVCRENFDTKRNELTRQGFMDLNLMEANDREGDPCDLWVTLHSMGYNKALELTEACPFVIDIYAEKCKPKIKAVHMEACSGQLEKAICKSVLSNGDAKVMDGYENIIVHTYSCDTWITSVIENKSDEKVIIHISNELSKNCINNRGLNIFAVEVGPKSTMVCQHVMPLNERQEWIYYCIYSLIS
# UniProt A6NDU8: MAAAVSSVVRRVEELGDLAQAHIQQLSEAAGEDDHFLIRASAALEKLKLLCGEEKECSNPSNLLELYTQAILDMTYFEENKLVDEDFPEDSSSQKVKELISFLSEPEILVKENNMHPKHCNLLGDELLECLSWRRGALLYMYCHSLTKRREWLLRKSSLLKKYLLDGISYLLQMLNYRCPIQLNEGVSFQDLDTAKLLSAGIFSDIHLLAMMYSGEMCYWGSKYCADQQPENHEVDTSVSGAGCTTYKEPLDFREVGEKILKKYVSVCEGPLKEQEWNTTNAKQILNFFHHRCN
# UniProt A1L429: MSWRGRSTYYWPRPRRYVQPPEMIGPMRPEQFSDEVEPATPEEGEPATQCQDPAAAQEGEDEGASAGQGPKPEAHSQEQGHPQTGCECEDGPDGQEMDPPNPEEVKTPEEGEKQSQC
# UniProt A6NEH6: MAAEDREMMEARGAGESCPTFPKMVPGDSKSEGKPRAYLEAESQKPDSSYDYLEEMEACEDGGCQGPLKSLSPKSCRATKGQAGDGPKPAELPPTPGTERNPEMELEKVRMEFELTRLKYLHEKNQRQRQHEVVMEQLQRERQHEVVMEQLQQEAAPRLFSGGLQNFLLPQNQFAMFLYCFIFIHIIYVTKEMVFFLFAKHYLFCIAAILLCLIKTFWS
# UniProt A6NDI0: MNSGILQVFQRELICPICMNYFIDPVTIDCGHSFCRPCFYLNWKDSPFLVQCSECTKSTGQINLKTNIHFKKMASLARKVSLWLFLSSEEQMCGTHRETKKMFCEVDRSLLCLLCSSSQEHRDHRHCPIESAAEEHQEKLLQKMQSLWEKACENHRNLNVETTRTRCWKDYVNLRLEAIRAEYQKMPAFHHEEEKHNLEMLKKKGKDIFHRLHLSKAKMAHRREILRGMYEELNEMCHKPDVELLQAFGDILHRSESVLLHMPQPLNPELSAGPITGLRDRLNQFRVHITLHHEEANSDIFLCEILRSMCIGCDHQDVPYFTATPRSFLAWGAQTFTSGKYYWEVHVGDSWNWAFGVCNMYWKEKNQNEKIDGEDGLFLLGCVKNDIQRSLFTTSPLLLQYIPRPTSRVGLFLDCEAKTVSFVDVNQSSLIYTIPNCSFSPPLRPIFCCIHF
# UniProt A6NHL2: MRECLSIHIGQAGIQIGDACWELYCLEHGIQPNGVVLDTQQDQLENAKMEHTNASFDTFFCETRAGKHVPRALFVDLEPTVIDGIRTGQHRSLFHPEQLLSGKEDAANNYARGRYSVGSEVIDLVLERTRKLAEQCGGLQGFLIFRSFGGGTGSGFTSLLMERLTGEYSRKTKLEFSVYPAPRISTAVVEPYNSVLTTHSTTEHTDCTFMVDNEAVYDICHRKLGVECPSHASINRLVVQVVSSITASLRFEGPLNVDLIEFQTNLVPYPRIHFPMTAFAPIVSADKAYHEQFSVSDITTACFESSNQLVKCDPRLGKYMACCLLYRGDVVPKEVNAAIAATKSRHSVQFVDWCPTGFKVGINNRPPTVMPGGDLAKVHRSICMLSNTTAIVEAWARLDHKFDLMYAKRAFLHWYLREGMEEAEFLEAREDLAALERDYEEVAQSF
# UniProt A8CG34, whole entry: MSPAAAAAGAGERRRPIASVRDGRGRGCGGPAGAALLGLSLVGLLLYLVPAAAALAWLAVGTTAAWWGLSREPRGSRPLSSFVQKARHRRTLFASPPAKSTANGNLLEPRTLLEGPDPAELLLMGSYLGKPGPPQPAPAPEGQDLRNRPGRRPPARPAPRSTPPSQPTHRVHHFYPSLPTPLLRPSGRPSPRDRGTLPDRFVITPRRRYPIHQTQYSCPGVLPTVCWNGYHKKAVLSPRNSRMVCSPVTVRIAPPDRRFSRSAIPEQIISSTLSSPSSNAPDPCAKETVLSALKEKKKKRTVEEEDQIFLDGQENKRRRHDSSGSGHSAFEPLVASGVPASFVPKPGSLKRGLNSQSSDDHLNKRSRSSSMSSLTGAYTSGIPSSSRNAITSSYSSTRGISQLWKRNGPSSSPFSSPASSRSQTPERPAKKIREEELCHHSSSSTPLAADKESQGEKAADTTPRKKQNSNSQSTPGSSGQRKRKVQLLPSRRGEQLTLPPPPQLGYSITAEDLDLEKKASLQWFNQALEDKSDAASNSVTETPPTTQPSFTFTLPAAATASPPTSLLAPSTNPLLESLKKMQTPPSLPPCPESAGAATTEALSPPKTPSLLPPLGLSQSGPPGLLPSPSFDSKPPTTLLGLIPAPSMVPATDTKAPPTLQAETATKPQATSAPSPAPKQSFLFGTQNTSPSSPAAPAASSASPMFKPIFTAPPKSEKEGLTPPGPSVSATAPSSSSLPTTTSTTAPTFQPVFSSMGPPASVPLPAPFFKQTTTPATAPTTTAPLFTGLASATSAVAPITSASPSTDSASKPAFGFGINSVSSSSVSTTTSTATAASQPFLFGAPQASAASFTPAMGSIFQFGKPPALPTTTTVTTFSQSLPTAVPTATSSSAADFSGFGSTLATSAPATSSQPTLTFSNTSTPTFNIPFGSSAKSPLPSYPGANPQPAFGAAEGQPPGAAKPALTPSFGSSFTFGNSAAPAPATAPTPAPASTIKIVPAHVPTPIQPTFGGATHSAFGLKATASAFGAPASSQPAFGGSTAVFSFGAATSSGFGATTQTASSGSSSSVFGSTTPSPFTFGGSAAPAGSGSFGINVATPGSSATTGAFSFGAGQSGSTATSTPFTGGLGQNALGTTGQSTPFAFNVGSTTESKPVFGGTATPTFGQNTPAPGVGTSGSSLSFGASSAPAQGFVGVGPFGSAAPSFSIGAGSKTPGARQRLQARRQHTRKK
# Some of the results follow. Small differences around the control level are noise.
# Compound: Cc1nc(Nc2ncc(C(=O)Nc3c(C)cccc3Cl)s2)cc(N2CCN(CCO)CC2)n1 [dasatinib]
# Assay: log2 fold change of tryptic peptide abundance, ligand vs vehicle (limited proteolysis) (log2 ratio); higher = more trypsin-susceptible (destabilized)
# Conditions: ligand concentration: 5 uM; sample: K562 cleared lysate
row,Target,log2 fold change
1,"UniProt A2RRD8 (peptide sequence: NSVLVIHK, peptide start residue: 285)",0.477
2,"UniProt A3KMH1 (peptide sequence: LKEELQLSDEQLQKR, peptide start residue: 553)",-0.638
3,"KIAA0922 (peptide sequence: SWCIQESTR, peptide start residue: 1257) (UniProt A2VDJ0)",0.0854
4,"A0A7P0TAN4 (peptide sequence: VLSNATSIANH, peptide start residue: 631)",0.159
5,"UniProt A6NKT7 (peptide sequence: AVECYRR, peptide start residue: 79)",0.573
6,"UniProt A5PLN9 (peptide sequence: AYLQPMDTR, peptide start residue: 241)",0.253
7,"UniProt A4FU28 (peptide sequence: ISHATEELETYR, peptide start residue: 1029)",0.366
8,"DDX11L8 (peptide sequence: QILYLLEK, peptide start residue: 443) (UniProt A8MPP1)",-0.426
9,"USP27X (peptide sequence: FTRPEHLGSSAK, peptide start residue: 369) (UniProt A6NNY8)",-0.112
10,"EFCAB7 (peptide sequence: SDATFSSQK, peptide start residue: 7) (UniProt A8K855)",-1.06
11,"TARSL2 (peptide sequence: ESEADSEVKHQPIFIK, peptide start residue: 117) (UniProt A2RTX5)",-1.33
12,"A0A1B0GVG4 (peptide sequence: LNVLEAEMSPQRRVPR, peptide start residue: 185), A0A1B0GVG4",-0.0288
13,"CNOT1 (peptide sequence: ECHLLVLK, peptide start residue: 1686) (UniProt A5YKK6)",-0.225
14,"ZNF316 (peptide sequence: RTHTGERPFPCPECGAR, peptide start residue: 739) (UniProt A6NFI3)",0.644
15,"C5orf51 (peptide sequence: ASAALEKLK, peptide start residue: 40) (UniProt A6NDU8)",-0.29
16,"UniProt A1L429 (peptide sequence: STYYWPR, peptide start residue: 7)",-0.0322
17,"HMX3 (peptide sequence: QLAAELEAANLSHAAAQR, peptide start residue: 285) (UniProt A6NHT5)",-0.206

# Two successive entries from above, for reference:
row,Target,log2 fold change
11,"TARSL2 (peptide sequence: ESEADSEVKHQPIFIK, peptide start residue: 117) (UniProt A2RTX5)",-1.33
12,"A0A1B0GVG4 (peptide sequence: LNVLEAEMSPQRRVPR, peptide start residue: 185), A0A1B0GVG4",-0.0288

# The listing continues:

row,Target,log2 fold change
1,"SH3PXD2B (peptide sequence: SFLPGEGPGR, peptide start residue: 699) (UniProt A1X283)",0.393
2,"A0A8V8TLL3 (peptide sequence: EAVVLGAAPAPR, peptide start residue: 203)",0.726
3,"UniProt A6NER0 (peptide sequence: KGDVPPPAK, peptide start residue: 354)",0.0278
4,"UniProt A6NEH6 (peptide sequence: MEFELTR, peptide start residue: 111)",0.206
5,"SMCHD1 (peptide sequence: GKRPIFECFWNGR, peptide start residue: 467) (UniProt A6NHR9)",-0.202
6,"UniProt A6NDI0 (peptide sequence: IDGEDGLFLLGCVKNDIQR, peptide start residue: 371)",0.103
7,"A0A0U1RRE5 (peptide sequence: STLPPGNAR, peptide start residue: 11), A0A0U1RRE5",-0.302
8,"UniProt A8K8P3 (peptide sequence: AVQHHHR, peptide start residue: 778)",0.254
9,"A0A1B0GUS4 (peptide sequence: FCKNAEEFTKK, peptide start residue: 136), A0A1B0GUS4",0.224
10,"TUBAL3 (peptide sequence: SLFHPEQLLSGKEDAANNYAR, peptide start residue: 92) (UniProt A6NHL2)",0.218
11,"KRBA1 (peptide sequence: RLQENPGAWKR, peptide start residue: 296) (UniProt A5PL33)",-0.597
12,"BDP1 (peptide sequence: TILPKDETEKK, peptide start residue: 1606) (UniProt A6H8Y1)",-0.595
13,"ANKRD36 (peptide sequence: KPSLEATSDEK, peptide start residue: 924) (UniProt A6QL64)",0.529
14,"CPED1 (peptide sequence: SDVFKGENYQK, peptide start residue: 430) (UniProt A4D0V7)",0.327
15,"POM121C (peptide sequence: DRGTLPDR, peptide start residue: 193) (UniProt A8CG34)",-0.123
16,"UniProt A2RU48 (peptide sequence: KLQDIKEK, peptide start residue: 98)",-0.159
17,"UniProt A6NFY7 (peptide sequence: QVLSLYR, peptide start residue: 10)",-0.187
